No constants are given. Whether binding was seen depends on the method and setting. In cells and extracts the contact can be indirect. Some results given as binding are weak or reduced against the parent protein; the word gives no strength. Where a sequence is shown, tags or fusion partners need not be part of it.
Target: T1, GPR37-HA (human) (UniProt O15354)
T1 sequence: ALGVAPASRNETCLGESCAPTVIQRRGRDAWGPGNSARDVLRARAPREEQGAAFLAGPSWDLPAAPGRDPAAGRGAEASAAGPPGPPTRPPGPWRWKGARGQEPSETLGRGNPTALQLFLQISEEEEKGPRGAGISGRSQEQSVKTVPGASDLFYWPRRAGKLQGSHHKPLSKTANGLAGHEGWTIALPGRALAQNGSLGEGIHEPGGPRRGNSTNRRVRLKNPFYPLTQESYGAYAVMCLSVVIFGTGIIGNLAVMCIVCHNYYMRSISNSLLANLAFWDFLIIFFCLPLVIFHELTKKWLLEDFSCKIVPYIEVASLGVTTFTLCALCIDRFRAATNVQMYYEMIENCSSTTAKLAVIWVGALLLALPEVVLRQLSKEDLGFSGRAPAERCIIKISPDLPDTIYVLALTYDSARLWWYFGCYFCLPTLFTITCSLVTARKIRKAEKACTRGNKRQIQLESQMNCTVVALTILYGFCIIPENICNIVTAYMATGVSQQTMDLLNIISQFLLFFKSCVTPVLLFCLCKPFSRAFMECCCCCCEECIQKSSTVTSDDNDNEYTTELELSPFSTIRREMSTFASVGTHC
Assay: co-IP; whole cell extracts of SGC-7901/REG4-Flag immunoprecipitated with anti-Flag antibody, and of SGC-7901/GPR37-HA with anti-HA antibody; blots with anti-GPR37 and anti-REG4 antibody

Chains of the proteins cited; added tags and fusions are not shown. Residues count along the entry.
UniProt Q9BYZ8, residues 23-158: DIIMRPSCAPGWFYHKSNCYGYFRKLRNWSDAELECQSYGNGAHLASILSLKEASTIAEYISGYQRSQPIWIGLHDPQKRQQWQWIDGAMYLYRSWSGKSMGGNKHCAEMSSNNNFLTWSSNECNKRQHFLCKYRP

binding: binds
Substance: REG4 (in SGC-7901/GPR37-HA cells, detected with anti-REG4 antibody) (from UniProt Q9BYZ8 23-158)
